Laboratory results as given in PubChem BioAssay AID504648 (National Center for Advancing Translational Sciences (NCATS), 2011).
Among all 390,000 compounds or so, about 610 (0.16%) were called active. The shares of active, inactive and inconclusive entries below differ from those in the screen. Calls come from the whole dose curve; as a rule, active = well fitted inhibition curve with a large enough effect; inconclusive = small, poorly fitted or top-dose-only effect, or effect the other way, or another doubt; inactive = no such curve, though single readings can be large or run the other way. Potencies beside an inconclusive call are fits to weak or partial responses and may not hold up.

Experiment: Nrf2 qHTS screen for inhibitors: counterscreen for cytotoxicity
Details: A549 ARE-Fluc cells, CellTiter-Fluor viability, 18-24 h; activity change, negative = cytotoxicity: at 46 µM (top of the series)
Procedure, shortened: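 A549 ARE_Fluc cells in 5% FBS OPTI-MEM were exposed to compounds in concentration-response for 18-24 h at 37 deg C. Viability was read by CellTiter-Fluor fluorescence (Ex 405/Em 525) after 30 min, before the luciferase read.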
% is set by controls: 0 for no effect and ±100 for the full control effect; potency is the fitted concentration of half-maximal effect.

SMILES | activity change, negative = cytotoxicity | Potency
CC1CCCC(C)N1CCCNC(=O)c1cc2c(s1)-c1ccccc1OC2 (centres undefined) | inactive: 15% | 
COc1ccc(Cc2nnc(NC(=O)c3ccccc3[N+](=O)[O-])s2)cc1 | inactive: 12.1% | 
COc1ccc(/C=C2/SC(=S)N(CCC(=O)N3CCN(C)CC3)C2=O)cc1 |  | inconclusive: 20.6 µM [falling, single point]
CN(C)CCN[C@H]1CCC2C3CC=C4C[C@@H](O)CC[C@]4(C)C3CC[C@@]21C (some centres undefined) |  | inconclusive: 11.6 µM [falling, partial curve]
CCOC(=O)Cn1c(CN2CCN(c3ccc(OC)cc3)CC2)nc2c1c(=O)[nH]c(=O)n2C | inactive: -3.08% | 
O=c1[nH]c(CO)nc2c1oc1ccccc12 | inactive: 1.13% | 
CC[n+]1ccccc1/C=C/Nc1ccccc1 |  | inconclusive: 18.4 µM [falling, single point]
CC(Oc1ccccc1)C(=O)Nc1nc(-c2ccccn2)cs1 (centres undefined) |  | inconclusive: 20.6 µM [falling, partial curve, poor fit]
O=C(CSc1nnc(COc2ccccc2)o1)N1CCOCC1 |  | inconclusive: 9.2 µM [activator, partial curve, poor fit]
O=C(NCc1ccccc1)C1=C[C@H](c2csc3ccccc23)C[C@H](OCCCCO)O1 |  | inconclusive: 32.6 µM [falling, partial curve, poor fit]
CCOC(=O)N1CCN(C(=O)c2cc3cc(OC)c(OC)cc3[nH]2)CC1 | inactive: -5.41% | 
COc1ccc(N2CCN(CCCNC(=O)c3ccc4nc(Cc5ccccc5)oc4c3)CC2)cc1 | inactive: -22.2% | 
O=C1CCCCC1Nc1ccc2ccccc2c1 (centres undefined) |  | inconclusive: 16.4 µM [falling, partial curve, poor fit]
CCOc1ccccc1NC(=O)CSc1ccc2nc(-c3ccccc3)cn2n1 | inactive: -16.2% | 
CCN(CC)c1ccc(/C=C(/C#N)c2nc3ccc(C)cc3[nH]2)c(OC(C)C)c1 |  | inconclusive: 20.6 µM [falling, single point]
C/C(=N\NC(=O)COc1ccccc1-c1ccccc1)c1ccccn1 |  | inconclusive: 1.03 µM [falling, full curve]
CCC(=O)N1CCCc2cc(S(=O)(=O)N3CCC(C(=O)Nc4ccc(C#N)cc4)CC3)ccc21 | inactive: 5.1% | 
Cc1ccc2oc(C(Cl)(Cl)Cl)cc(=O)c2c1 |  | inconclusive: 14.6 µM [falling, partial curve]
C=CCN1C(=O)/C(=C/C=C2/N(CC)c3ccc(S(=O)(=O)N(C)C)cc3N2CC)SC1=S |  | inconclusive: 4.11 µM [falling, full curve]
O=C(NNc1c([N+](=O)[O-])cc(C(F)(F)F)cc1[N+](=O)[O-])c1ccco1 |  | inconclusive: 29.1 µM [falling, partial curve, poor fit]
CN1CCN(Cc2nc3ccccc3c(=O)n2Cc2nc(-c3ccc4ccccc4c3)cs2)CC1 |  | inconclusive: 18.4 µM [falling, single point]
Cc1cc(Nc2ccc(O)cc2)ccc1N |  | inconclusive: 20.6 µM [falling, single point]
COc1ccc(-c2cc3ccc(O)c(CN4CCCCC4C)c3oc2=O)cc1OC (centres undefined) |  | inconclusive: 16.4 µM [activator, partial curve]

SMILES | activity change, negative = cytotoxicity | Potency
CCOC(=O)c1cnc2c(OC)cccc2c1N1CC(C)CC(C)C1 (centres undefined) |  | inconclusive: 25.9 µM [falling, partial curve, poor fit]
Cc1cccc(NC(=S)N(CCCN2CCCC2)Cc2cccn2Cc2ccc(Cl)cc2)c1 |  | inconclusive: 29.1 µM [falling, single point]
O=C(COc1ccc(S(=O)(=O)NC2CCCC2)cc1)N1CCCCC1 | inactive: -5.84% | 
CCCCc1ccc(NC(=O)CSCc2cc(=O)[nH][nH]2)cc1 | inactive: -2.43% | 
COc1ccccc1-c1nnc(SCC(=O)Nc2nc(-c3ccccc3)cs2)n1C |  | inconclusive: 29.1 µM [falling, single point]
COc1ccc(OCC(=O)NC(Cc2c[nH]c3ccccc23)C(=O)O)cc1 (centres undefined) | inactive: -2.93% | 
CCOC(=O)Cc1ccc2sc(-c3ccccc3)nc2c1 | inactive: 0.375% | 
COc1ccc(-n2ncc3c(=O)n(CC(=O)N4c5ccccc5CC4C)cnc32)cc1 (centres undefined) |  | inconclusive: 18.4 µM [falling, single point]
Cc1ccc(NC(=O)COCC(=O)Nc2ccc(C)cc2)cc1 |  | inconclusive: 0.0065 µM [activator, full curve, poor fit]
Cc1ccc(/C=N/NC(=O)c2ccc3nc[nH]c3c2)s1 |  | inconclusive: 13 µM [activator, partial curve, poor fit]
COc1ccc(NC(=S)N(CCCN2CCCC2)Cc2cccn2Cc2ccc(Cl)cc2)cc1Cl |  | inconclusive: 29.1 µM [falling, single point]
COc1ccc(C(=O)NC(=S)NC2CCCCC2)cc1 |  | inconclusive: 7.31 µM [activator, partial curve, poor fit]
COc1ccc(NS(=O)(=O)c2ccc(C)c(NC(=O)NC3CCCCC3)c2)cc1 |  | inconclusive: 16.4 µM [falling, single point]
CC(C)c1ccc(C2C3=C(CC(C)(C)CC3=O)NC3=C2C(=O)c2ccccc23)cc1 (centres undefined) |  | active: 16.4 µM
Cc1ccc(S(=O)(=O)N(CC(=O)NCCC2=CCCCC2)Cc2ccccc2F)cc1 |  | inconclusive: 29.1 µM [falling, single point]
CCCCC(=O)Nc1ccc(C(=O)OCc2cc(=O)n3ccsc3n2)cc1 | inactive: -0.783% | 
CCn1c(=O)c(C(=O)NNC(=O)c2ccccc2)c(O)c2ccccc21 |  | inconclusive: 29.1 µM [falling, partial curve, poor fit]
COc1ccc(Cn2c(SCc3ccc(C(=O)NCc4cccs4)cc3)nc3ccncc32)cc1 | inactive: -8.99% | 
O=C(COC(=O)/C=C/c1cccc(Br)c1)NC1CCCC1 | inactive: 9.89% | 
COc1cc(OC)c(NC(=O)C(C)n2nc(-c3ccc(C)cc3)c3c(c2=O)CCCC3)cc1Cl (centres undefined) |  | inconclusive: 23.1 µM [falling, partial curve, poor fit]
Cc1cccc(Nc2nc(N3CCCC3)nc(N3CCCC3)n2)c1 |  | inconclusive: 23.1 µM [falling, single point]
Cc1ccc(NC(=O)C2CCCN(c3ncnc4onc(C)c34)C2)cc1Cl (centres undefined) |  | inconclusive: 25.9 µM [falling, partial curve, poor fit]
CCOC(=O)N1CCC(N2CCCC(C(=O)c3ccc4cc(OC)ccc4c3)C2)CC1 (centres undefined) | inactive: 2.75% | 

SMILES | activity change, negative = cytotoxicity | Potency
CCOc1ncccc1C(=O)OCC(=O)Nc1ccc(-c2nc3ccc(C)cc3s2)cc1 | inactive: 12.8% | 
CCOc1ccc(C(=O)Nc2ccc3nc4c(c(Nc5ccccc5OC)c3c2)CCCC4)cc1 |  | inconclusive: 18.4 µM [falling, single point]
Cc1c(C(=O)N2CCN(c3ccccc3)CC2)sc2ncnc(N3CCN(c4ccccn4)CC3)c12 | inactive: -6.22% | 
COc1ccc(OC)c(Nc2nc(-c3sc(N)nc3C)cs2)c1 | inactive: -11% | 
Cc1ccc(/C=C2\C(=N)N3N=C(CC(=O)N4CCOCC4)SC3=NC2=O)o1 |  | inconclusive: 29.1 µM [falling, single point]
Cc1ccc(SCC(=O)OC(C)C(=O)NCc2ccccc2)cc1 (centres undefined) | inactive: 0.0825% | 
O=C(NC(c1ccccc1)c1c(O)ccc2ccccc12)c1ccccc1Cl (centres undefined) |  | inconclusive: 29.1 µM [falling, single point]
Cc1nc(Nc2ccc(F)cc2)nc(Nc2ccc(F)cc2)c1[N+](=O)[O-] |  | inconclusive: 16.4 µM [falling, single point]
CCC(=O)NC(c1ccc(F)cc1)c1cc(Cl)c2cccnc2c1O (centres undefined) | inactive: -11.1% | 
Cc1ccccc1CNC(=O)c1ccc(Cn2c(SCc3ccccc3)nc3cccnc32)cc1 |  | inconclusive: 29.1 µM [falling, partial curve, poor fit]
COCCN1Cc2cccc(C(=O)Nc3cccc(-c4nc5ccccc5[nH]4)c3)c2C1=O |  | inconclusive: 16.4 µM [falling, single point]
CNCCOc1ccccc1C(C)(C)C |  | inconclusive: 16.4 µM [activator, partial curve, poor fit]
O=C(N/N=C/c1ccc([N+](=O)[O-])s1)c1ccccc1Br |  | inconclusive: 29.1 µM [falling, single point]
CC(=NNc1nc2ccccc2s1)c1ccncn1 |  | inconclusive: 29.1 µM [falling, single point]
COc1ccccc1NC(=O)Cn1c(=O)n(-c2cccc(Cl)c2)c(=O)c2sc3ccccc3c21 | inactive: -10.1% | 
COc1cc(OC)c2c(C)cc(=O)oc2c1C(CCN1CCOCC1)c1ccc2c(c1)OCO2 (centres undefined) |  | inconclusive: 29.1 µM [falling, single point]
CN(c1ccccc1)S(=O)(=O)c1cccc(C(=O)OCC(=O)NCc2ccc3c(c2)OCO3)c1 |  | inconclusive: 0.259 µM [activator, full curve, poor fit]
CC(C)(C)c1ccc(NC(=O)COc2ccc(-n3ccnc3)cc2)cc1 |  | inconclusive: 25.9 µM [falling, partial curve, poor fit]
CC(=O)c1ccc(-c2cccc(-c3nc4ccccn4c3NC3CCCCC3)c2)cc1 |  | inconclusive: 23.1 µM [falling, single point]
O=C(COC(=O)c1cc([N+](=O)[O-])ccc1N1CCOCC1)Nc1ccc(Cl)cn1 |  | inconclusive: 25.9 µM [falling, single point]
CCN(CC)S(=O)(=O)c1ccc(C(=O)Nc2nnc(COC)o2)cc1 | inactive: 3.98% | 
CCCCc1nn2c(=O)cc(COC(=O)c3cccs3)nc2s1 | inactive: -1.46% | 
COCC(N)(c1ccccc1)c1nc2ccccc2n1C (centres undefined) |  | inconclusive: 2.06 µM [activator, partial curve]

Given with tabs: entries from further up.
SMILES	activity change, negative = cytotoxicity	Potency
CCN(CC)S(=O)(=O)c1ccc(C(=O)Nc2nnc(COC)o2)cc1	inactive: 3.98%	
CCCCc1nn2c(=O)cc(COC(=O)c3cccs3)nc2s1	inactive: -1.46%	
COCC(N)(c1ccccc1)c1nc2ccccc2n1C (centres undefined)		inconclusive: 2.06 µM [activator, partial curve]
